PubChem BioAssay AID1508597 | Cure First, 2020
Aim: 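Genes whose silencing sensitises or protects ovarian cancer cells against rucaparib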 (primary screen). Cell system: human ovarian carcinoma lines grown from tumours: OCI-P5x (papillary serous) and OCI-C5x (clear cell). Reagent: siRNA pool against human genes, 1.25 pmol siRNA per well. Timing: 72 h or 96 h, depending on the cell culture. Challenge: rucaparib 20 µM (about IC30) or vehicle, present until read-out. Measured: 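Luminescent ATP-based viability assay read 72 or 96 h after transfection, depending on culture, given as normalised percent viability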. Direction: viability, normalised: higher = more viable cells remaining. Active means: 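Active when normalised viability falls below 80 percent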. Calls: active = viability under 80%; inactive = viability 80% or more.
In all, the deposit lists about 2,100 reagents; this is a random part of them. 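Calls flag viability under 80% in either arm, not effects specific to rucaparib; the reference for percent is not stated.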 Some reagents were tested in more than one well and are listed for each. Not stated in the record: the 100% reference.

PML (GeneID 5371), rucaparib or vehicle Rucaparib, cell line OCI-C5x (clear cell), technical replicate 1 | viability, normalised (%): 42.8; call: active
PML (GeneID 5371), rucaparib or vehicle Rucaparib, cell line OCI-C5x (clear cell), technical replicate 1 | viability, normalised (%): 49.1; call: active
PML (GeneID 5371), rucaparib or vehicle Rucaparib, cell line OCI-C5x (clear cell), technical replicate 2 | viability, normalised (%): 43.4; call: active
PML (GeneID 5371), rucaparib or vehicle Rucaparib, cell line OCI-C5x (clear cell), technical replicate 2 | viability, normalised (%): 33.2; call: active
PML (GeneID 5371), rucaparib or vehicle Rucaparib, cell line OCI-C5x (clear cell), technical replicate 3 | viability, normalised (%): 37.9; call: active
PML (GeneID 5371), rucaparib or vehicle Rucaparib, cell line OCI-C5x (clear cell), technical replicate 3 | viability, normalised (%): 51.1; call: active
PML (GeneID 5371), rucaparib or vehicle Rucaparib, cell line OCI-P5x (serous), technical replicate 1 | viability, normalised (%): 66.7; call: active
PML (GeneID 5371), rucaparib or vehicle Rucaparib, cell line OCI-P5x (serous), technical replicate 1 | viability, normalised (%): 57.9; call: active
PML (GeneID 5371), rucaparib or vehicle Rucaparib, cell line OCI-P5x (serous), technical replicate 2 | viability, normalised (%): 46.3; call: active
PML (GeneID 5371), rucaparib or vehicle Rucaparib, cell line OCI-P5x (serous), technical replicate 2 | viability, normalised (%): 61.5; call: active
PML (GeneID 5371), rucaparib or vehicle Rucaparib, cell line OCI-P5x (serous), technical replicate 3 | viability, normalised (%): 64; call: active
PML (GeneID 5371), rucaparib or vehicle Rucaparib, cell line OCI-P5x (serous), technical replicate 3 | viability, normalised (%): 55.9; call: active
PML (GeneID 5371), rucaparib or vehicle Vehicle, cell line OCI-C5x (clear cell), technical replicate 1 | viability, normalised (%): 43.2; call: active
PML (GeneID 5371), rucaparib or vehicle Vehicle, cell line OCI-C5x (clear cell), technical replicate 1 | viability, normalised (%): 57.4; call: active
PML (GeneID 5371), rucaparib or vehicle Vehicle, cell line OCI-C5x (clear cell), technical replicate 2 | viability, normalised (%): 29.8; call: active
PML (GeneID 5371), rucaparib or vehicle Vehicle, cell line OCI-C5x (clear cell), technical replicate 2 | viability, normalised (%): 44.7; call: active
PML (GeneID 5371), rucaparib or vehicle Vehicle, cell line OCI-C5x (clear cell), technical replicate 3 | viability, normalised (%): 52.2; call: active
PML (GeneID 5371), rucaparib or vehicle Vehicle, cell line OCI-C5x (clear cell), technical replicate 3 | viability, normalised (%): 36.6; call: active
PML (GeneID 5371), rucaparib or vehicle Vehicle, cell line OCI-P5x (serous), technical replicate 1 | viability, normalised (%): 54.3; call: active
PML (GeneID 5371), rucaparib or vehicle Vehicle, cell line OCI-P5x (serous), technical replicate 1 | viability, normalised (%): 55.8; call: active
PML (GeneID 5371), rucaparib or vehicle Vehicle, cell line OCI-P5x (serous), technical replicate 2 | viability, normalised (%): 46.6; call: active
PML (GeneID 5371), rucaparib or vehicle Vehicle, cell line OCI-P5x (serous), technical replicate 2 | viability, normalised (%): 60.4; call: active
PML (GeneID 5371), rucaparib or vehicle Vehicle, cell line OCI-P5x (serous), technical replicate 3 | viability, normalised (%): 54.1; call: active
PML (GeneID 5371), rucaparib or vehicle Vehicle, cell line OCI-P5x (serous), technical replicate 3 | viability, normalised (%): 67.3; call: active
